PubChem BioAssay AID493246 | Drosophila RNAi Screening Center, 2011
Purpose: 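Genome-wide search for dsRNAs that reduce cell number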 (primary screen). Cell system: Drosophila Kc and S2R+ cells. Reagents: long dsRNA against Drosophila genes. Measurement: 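Cell number per well after knock-down, printed as raw plate values; calls were based on per-plate z-scores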. Reading the numbers: Kc cell number and S2R+ cell number: higher = more cells remaining. Hit rule: 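Counted as a hit if cell number falls by a z-score of at least 3 within its plate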.
The deposit covers about 21,000 reagents; this is a random part of those that have a named target and a result. Over the whole deposit, 429 (2%) were called active. 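Values are raw and not normalised between plates; calls rest on per-plate z-scores that were not deposited.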 Reagent sequences are not shown. Not stated in the record: the amount of reagent, the time to read-out.

After knock-down of Ube4B [SID104183069], the screen gave Kc cell number, rep 1 = 1.31e6; Kc cell number, rep 2 = 1.34e6; S2R+ cell number, rep 1 = 1.18e6; S2R+ cell number, rep 2 = 1.27e6; inactive. Against sim [SID104196846], the entry reads Kc cell number, rep 1 = 1.37e6; Kc cell number, rep 2 = 1.38e6; S2R+ cell number, rep 1 = 1.10e6; S2R+ cell number, rep 2 = 1.23e6; inactive. CG11601 [SID104180110] gave Kc cell number, rep 1 = 1.60e6; Kc cell number, rep 2 = 1.64e6; S2R+ cell number, rep 1 = 1.14e6; S2R+ cell number, rep 2 = 1.29e6; inactive. Knock-down of Grd [SID104190970] gave: Kc cell number, rep 1 = 1.17e6; Kc cell number, rep 2 = 1.39e6; S2R+ cell number, rep 1 = 1.25e6; S2R+ cell number, rep 2 = 1.35e6; inactive. CG3961 [SID104190182] showed Kc cell number, rep 1 = 1.57e6; Kc cell number, rep 2 = 1.64e6; S2R+ cell number, rep 1 = 1.21e6; S2R+ cell number, rep 2 = 1.23e6; inactive. For CG3961 [SID104190183], the entry reads Kc cell number, rep 1 = 1.71e6; Kc cell number, rep 2 = 2.05e6; S2R+ cell number, rep 1 = 1.45e6; S2R+ cell number, rep 2 = 1.52e6; inactive.

For CG11192 [SID104185849], the values are Kc cell number, rep 1 = 1.67e6; Kc cell number, rep 2 = 1.70e6; S2R+ cell number, rep 1 = 1.16e6; S2R+ cell number, rep 2 = 1.39e6; inactive. With knock-down of CG13775 [SID104182071] the results were Kc cell number, rep 1 = 1.76e6; Kc cell number, rep 2 = 1.83e6; S2R+ cell number, rep 1 = 1.31e6; S2R+ cell number, rep 2 = 1.47e6; inactive. For nAChRalpha6 [SID104180888] the deposit lists Kc cell number, rep 1 = 1.45e6; Kc cell number, rep 2 = 1.57e6; S2R+ cell number, rep 1 = 9.80e5; S2R+ cell number, rep 2 = 1.13e6; inactive. Silencing of nAChRalpha6 [SID104182530] resulted in: Kc cell number, rep 1 = 1.48e6; Kc cell number, rep 2 = 1.42e6; S2R+ cell number, rep 1 = 1.11e6; S2R+ cell number, rep 2 = 1.19e6; inactive. Against Tdrd3 [SID104189808], the values are Kc cell number, rep 1 = 1.30e6; Kc cell number, rep 2 = 1.40e6; S2R+ cell number, rep 1 = 1.24e6; S2R+ cell number, rep 2 = 1.34e6; inactive. After knock-down of Pcmt [SID104192155], the record shows Kc cell number, rep 1 = 1.57e6; Kc cell number, rep 2 = 1.77e6; S2R+ cell number, rep 1 = 1.31e6; S2R+ cell number, rep 2 = 1.53e6; inactive.

After knock-down of mRpL42 [SID104186027] the results were Kc cell number, rep 1 = 1.37e6; Kc cell number, rep 2 = 1.45e6; S2R+ cell number, rep 1 = 1.06e6; S2R+ cell number, rep 2 = 1.09e6; inactive. Cpr65Ay [SID104188588] gave Kc cell number, rep 1 = 1.59e6; Kc cell number, rep 2 = 1.57e6; S2R+ cell number, rep 1 = 1.01e6; S2R+ cell number, rep 2 = 1.24e6; inactive. With knock-down of TTLL5 [SID104193973], the record shows Kc cell number, rep 1 = 1.62e6; Kc cell number, rep 2 = 1.66e6; S2R+ cell number, rep 1 = 1.31e6; S2R+ cell number, rep 2 = 1.38e6; inactive. del [SID104182962] gave Kc cell number, rep 1 = 1.38e6; Kc cell number, rep 2 = 1.47e6; S2R+ cell number, rep 1 = 1.05e6; S2R+ cell number, rep 2 = 1.11e6; inactive. After knock-down of Vsx1 [SID104198141], the screen gave Kc cell number, rep 1 = 9.02e5; Kc cell number, rep 2 = 9.13e5; S2R+ cell number, rep 1 = 3.80e5; S2R+ cell number, rep 2 = 4.94e5; active. Knock-down of Vsx1 [SID104198142] gave: Kc cell number, rep 1 = 1.49e6; Kc cell number, rep 2 = 1.50e6; S2R+ cell number, rep 1 = 7.72e5; S2R+ cell number, rep 2 = 8.90e5; inactive.

With knock-down of Mnt [SID104197686], the screen gave Kc cell number, rep 1 = 5.37e5; S2R+ cell number, rep 1 = 8.21e5; inactive. For Mnt [SID104198272], the values are Kc cell number, rep 1 = 1.60e6; Kc cell number, rep 2 = 1.56e6; S2R+ cell number, rep 1 = 9.63e5; S2R+ cell number, rep 2 = 1.15e6; inactive. Silencing of Calr [SID104196406] came out at: Kc cell number, rep 1 = 1.47e6; Kc cell number, rep 2 = 1.36e6; S2R+ cell number, rep 1 = 1.11e6; S2R+ cell number, rep 2 = 1.21e6; inactive. After knock-down of CG30377 [SID104186269], the record shows Kc cell number, rep 1 = 1.54e6; Kc cell number, rep 2 = 1.50e6; S2R+ cell number, rep 1 = 1.16e6; S2R+ cell number, rep 2 = 1.19e6; inactive. For CG30377 [SID104186591] the deposit lists Kc cell number, rep 1 = 1.47e6; Kc cell number, rep 2 = 1.55e6; S2R+ cell number, rep 1 = 1.07e6; S2R+ cell number, rep 2 = 1.20e6; inactive. Knock-down of CAP [SID104185007] gave: Kc cell number, rep 1 = 1.53e6; Kc cell number, rep 2 = 1.48e6; S2R+ cell number, rep 1 = 9.56e5; S2R+ cell number, rep 2 = 1.16e6; inactive.

With knock-down of CAP [SID104186535] the results were Kc cell number, rep 1 = 1.59e6; Kc cell number, rep 2 = 1.63e6; S2R+ cell number, rep 1 = 1.26e6; S2R+ cell number, rep 2 = 1.30e6; inactive. For CAP [SID104186536], the values are Kc cell number, rep 1 = 1.63e6; Kc cell number, rep 2 = 1.62e6; S2R+ cell number, rep 1 = 1.29e6; S2R+ cell number, rep 2 = 1.34e6; inactive. Knock-down of CAP [SID104186537] came out at: Kc cell number, rep 1 = 1.74e6; Kc cell number, rep 2 = 1.71e6; S2R+ cell number, rep 1 = 1.42e6; S2R+ cell number, rep 2 = 1.56e6; inactive. Against CAP [SID104186638], the values are Kc cell number, rep 1 = 1.88e6; Kc cell number, rep 2 = 1.90e6; S2R+ cell number, rep 1 = 1.54e6; S2R+ cell number, rep 2 = 1.64e6; inactive.

Targets listed so far whose gene name begins with T or t:
Tdrd3 [SID104189808]: Kc cell number, rep 1 = 1.30e6; Kc cell number, rep 2 = 1.40e6; S2R+ cell number, rep 1 = 1.24e6; S2R+ cell number, rep 2 = 1.34e6; activity call = inactive
TTLL5 [SID104193973]: Kc cell number, rep 1 = 1.62e6; Kc cell number, rep 2 = 1.66e6; S2R+ cell number, rep 1 = 1.31e6; S2R+ cell number, rep 2 = 1.38e6; activity call = inactive
